The other results are listed elsewhere or left out.
Assays:
Experiment in all cases: log2 fold change, soluble protein after heating vs DMSO (PISA); higher = thermal stabilisation; K562 cells, 10 uM, 30 min; active = over 0.2 and 3.5 SD of the protein, either way, in both replicates (recomputed)
filanesib = compound: CON(C)C(=O)N1N=C(c2cc(F)ccc2F)S[C@@]1(CCCN)c1ccccc1 [filanesib]
Summary of the method: (§1)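 Quantification of soluble protein used TMTpro 16plex LC-MS/MS, with channel sums equalised. Samples were the supernatant after 21,000xg for 90 min of pooled aliquots from K562 cells (2×10^6 cells/mL) treated with 10 μM compound for 30 min, heated for 3 min over 48°C-58°C, and extracted in PBS with 0.5% NP-40 at 4°C. Values, from duplicates, describe thermal stability against control samples on a log2 fold-change scale.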

Chains of the proteins cited; added tags and fusions are not shown. Lines headed by an entry give the natural chain unless they say otherwise; changes in a name come on top.
UniProt Q9H1H9: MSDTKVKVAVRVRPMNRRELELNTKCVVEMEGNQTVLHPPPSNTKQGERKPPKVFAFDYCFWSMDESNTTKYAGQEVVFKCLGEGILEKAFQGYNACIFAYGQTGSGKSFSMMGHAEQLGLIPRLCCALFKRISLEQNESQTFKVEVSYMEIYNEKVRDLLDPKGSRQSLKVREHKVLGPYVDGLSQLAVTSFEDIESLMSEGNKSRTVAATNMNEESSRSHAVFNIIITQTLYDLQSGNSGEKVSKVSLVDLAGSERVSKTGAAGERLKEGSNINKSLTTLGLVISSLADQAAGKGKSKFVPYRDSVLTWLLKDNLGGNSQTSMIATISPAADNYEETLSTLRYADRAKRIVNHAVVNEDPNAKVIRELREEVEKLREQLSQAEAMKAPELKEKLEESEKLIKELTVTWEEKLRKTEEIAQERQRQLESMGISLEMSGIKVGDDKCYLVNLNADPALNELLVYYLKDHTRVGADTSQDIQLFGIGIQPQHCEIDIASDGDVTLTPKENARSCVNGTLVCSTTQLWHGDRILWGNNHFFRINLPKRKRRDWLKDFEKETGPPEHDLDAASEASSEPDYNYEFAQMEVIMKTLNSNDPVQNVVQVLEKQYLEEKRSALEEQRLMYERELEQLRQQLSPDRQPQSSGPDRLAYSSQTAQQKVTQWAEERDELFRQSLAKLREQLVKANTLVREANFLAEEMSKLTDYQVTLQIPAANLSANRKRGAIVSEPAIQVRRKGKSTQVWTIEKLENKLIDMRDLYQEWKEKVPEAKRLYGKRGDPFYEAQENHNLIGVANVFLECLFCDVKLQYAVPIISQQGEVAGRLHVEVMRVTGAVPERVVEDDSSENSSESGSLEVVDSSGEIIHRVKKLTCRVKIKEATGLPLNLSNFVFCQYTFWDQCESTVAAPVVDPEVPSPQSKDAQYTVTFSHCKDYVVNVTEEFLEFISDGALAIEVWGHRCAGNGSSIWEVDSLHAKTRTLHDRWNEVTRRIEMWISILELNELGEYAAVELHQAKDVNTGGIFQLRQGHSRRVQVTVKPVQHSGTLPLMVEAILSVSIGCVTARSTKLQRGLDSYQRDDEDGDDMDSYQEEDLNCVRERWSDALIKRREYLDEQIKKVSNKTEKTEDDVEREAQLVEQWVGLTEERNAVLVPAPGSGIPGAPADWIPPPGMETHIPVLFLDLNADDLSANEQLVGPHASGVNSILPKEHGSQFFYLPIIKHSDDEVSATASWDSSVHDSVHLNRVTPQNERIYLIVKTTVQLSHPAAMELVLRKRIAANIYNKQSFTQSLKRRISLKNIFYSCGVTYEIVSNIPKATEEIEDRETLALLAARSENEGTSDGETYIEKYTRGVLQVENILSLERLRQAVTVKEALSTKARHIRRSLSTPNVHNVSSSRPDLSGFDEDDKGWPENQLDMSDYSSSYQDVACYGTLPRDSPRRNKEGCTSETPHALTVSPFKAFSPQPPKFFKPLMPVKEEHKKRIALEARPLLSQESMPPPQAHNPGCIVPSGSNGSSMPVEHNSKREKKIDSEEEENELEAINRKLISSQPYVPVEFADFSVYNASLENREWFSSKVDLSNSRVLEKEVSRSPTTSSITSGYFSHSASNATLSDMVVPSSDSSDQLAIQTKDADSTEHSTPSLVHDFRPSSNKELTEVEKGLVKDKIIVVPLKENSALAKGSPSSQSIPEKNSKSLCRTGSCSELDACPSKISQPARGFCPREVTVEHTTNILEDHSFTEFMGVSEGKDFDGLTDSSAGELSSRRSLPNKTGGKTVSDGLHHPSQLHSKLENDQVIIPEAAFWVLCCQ
UniProt Q9ULI4: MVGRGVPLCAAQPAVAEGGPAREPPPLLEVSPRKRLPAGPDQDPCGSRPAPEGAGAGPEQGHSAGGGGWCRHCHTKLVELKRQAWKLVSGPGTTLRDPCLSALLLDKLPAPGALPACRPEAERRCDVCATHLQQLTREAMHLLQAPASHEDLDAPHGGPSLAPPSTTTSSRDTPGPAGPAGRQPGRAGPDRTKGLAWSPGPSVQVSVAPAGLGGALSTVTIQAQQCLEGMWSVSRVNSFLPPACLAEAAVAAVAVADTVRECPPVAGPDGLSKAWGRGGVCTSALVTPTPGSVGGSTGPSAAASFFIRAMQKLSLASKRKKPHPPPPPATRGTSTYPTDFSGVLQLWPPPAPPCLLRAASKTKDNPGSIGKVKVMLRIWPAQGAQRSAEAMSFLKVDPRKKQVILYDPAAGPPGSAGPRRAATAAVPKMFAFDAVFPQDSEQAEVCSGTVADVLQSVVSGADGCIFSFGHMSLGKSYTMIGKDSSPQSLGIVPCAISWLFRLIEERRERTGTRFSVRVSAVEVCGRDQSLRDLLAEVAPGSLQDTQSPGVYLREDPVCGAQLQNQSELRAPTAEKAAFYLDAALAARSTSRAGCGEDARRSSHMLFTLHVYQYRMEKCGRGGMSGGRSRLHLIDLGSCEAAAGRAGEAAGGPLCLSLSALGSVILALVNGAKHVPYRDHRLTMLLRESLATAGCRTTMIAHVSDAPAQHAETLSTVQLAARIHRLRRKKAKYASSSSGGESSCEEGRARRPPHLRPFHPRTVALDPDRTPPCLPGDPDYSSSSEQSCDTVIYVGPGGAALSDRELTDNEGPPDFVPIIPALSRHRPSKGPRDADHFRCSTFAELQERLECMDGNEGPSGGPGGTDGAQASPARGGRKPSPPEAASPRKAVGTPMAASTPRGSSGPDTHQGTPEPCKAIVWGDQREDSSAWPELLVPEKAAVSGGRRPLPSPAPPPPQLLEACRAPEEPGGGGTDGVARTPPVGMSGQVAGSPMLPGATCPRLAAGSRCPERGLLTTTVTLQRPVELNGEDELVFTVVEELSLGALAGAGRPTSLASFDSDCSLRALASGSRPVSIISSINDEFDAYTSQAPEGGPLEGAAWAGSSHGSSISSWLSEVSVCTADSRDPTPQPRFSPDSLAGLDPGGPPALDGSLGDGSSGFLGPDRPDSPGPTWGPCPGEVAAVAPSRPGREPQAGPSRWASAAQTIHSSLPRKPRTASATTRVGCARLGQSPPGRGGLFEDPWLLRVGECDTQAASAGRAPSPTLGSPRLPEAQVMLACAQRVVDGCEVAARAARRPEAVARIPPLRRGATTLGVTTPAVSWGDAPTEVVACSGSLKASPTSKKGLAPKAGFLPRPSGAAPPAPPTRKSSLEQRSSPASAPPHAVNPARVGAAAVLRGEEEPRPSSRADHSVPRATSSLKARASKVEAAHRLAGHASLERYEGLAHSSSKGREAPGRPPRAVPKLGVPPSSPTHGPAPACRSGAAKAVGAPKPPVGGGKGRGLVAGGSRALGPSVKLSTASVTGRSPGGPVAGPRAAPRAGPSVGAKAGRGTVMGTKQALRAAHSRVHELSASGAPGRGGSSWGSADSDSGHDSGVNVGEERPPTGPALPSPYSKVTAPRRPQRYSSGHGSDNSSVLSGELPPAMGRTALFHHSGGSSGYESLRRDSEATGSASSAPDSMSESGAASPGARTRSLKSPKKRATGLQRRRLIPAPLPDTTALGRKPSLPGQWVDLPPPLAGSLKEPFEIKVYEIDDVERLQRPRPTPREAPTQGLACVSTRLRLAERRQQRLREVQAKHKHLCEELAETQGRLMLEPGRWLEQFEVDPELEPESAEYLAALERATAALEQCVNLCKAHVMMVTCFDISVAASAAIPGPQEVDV
UniProt Q8NAX2: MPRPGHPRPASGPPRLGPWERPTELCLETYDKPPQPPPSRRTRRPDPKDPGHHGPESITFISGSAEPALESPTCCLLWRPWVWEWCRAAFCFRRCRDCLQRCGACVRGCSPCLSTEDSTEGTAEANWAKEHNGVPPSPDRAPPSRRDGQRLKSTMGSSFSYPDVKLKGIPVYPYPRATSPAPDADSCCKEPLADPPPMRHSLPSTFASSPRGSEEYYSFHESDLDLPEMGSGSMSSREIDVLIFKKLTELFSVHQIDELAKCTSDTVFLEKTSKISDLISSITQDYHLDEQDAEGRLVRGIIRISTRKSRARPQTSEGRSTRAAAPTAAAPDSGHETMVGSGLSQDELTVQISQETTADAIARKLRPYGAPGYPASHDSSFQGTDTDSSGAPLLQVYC
UniProt Q5JYT7: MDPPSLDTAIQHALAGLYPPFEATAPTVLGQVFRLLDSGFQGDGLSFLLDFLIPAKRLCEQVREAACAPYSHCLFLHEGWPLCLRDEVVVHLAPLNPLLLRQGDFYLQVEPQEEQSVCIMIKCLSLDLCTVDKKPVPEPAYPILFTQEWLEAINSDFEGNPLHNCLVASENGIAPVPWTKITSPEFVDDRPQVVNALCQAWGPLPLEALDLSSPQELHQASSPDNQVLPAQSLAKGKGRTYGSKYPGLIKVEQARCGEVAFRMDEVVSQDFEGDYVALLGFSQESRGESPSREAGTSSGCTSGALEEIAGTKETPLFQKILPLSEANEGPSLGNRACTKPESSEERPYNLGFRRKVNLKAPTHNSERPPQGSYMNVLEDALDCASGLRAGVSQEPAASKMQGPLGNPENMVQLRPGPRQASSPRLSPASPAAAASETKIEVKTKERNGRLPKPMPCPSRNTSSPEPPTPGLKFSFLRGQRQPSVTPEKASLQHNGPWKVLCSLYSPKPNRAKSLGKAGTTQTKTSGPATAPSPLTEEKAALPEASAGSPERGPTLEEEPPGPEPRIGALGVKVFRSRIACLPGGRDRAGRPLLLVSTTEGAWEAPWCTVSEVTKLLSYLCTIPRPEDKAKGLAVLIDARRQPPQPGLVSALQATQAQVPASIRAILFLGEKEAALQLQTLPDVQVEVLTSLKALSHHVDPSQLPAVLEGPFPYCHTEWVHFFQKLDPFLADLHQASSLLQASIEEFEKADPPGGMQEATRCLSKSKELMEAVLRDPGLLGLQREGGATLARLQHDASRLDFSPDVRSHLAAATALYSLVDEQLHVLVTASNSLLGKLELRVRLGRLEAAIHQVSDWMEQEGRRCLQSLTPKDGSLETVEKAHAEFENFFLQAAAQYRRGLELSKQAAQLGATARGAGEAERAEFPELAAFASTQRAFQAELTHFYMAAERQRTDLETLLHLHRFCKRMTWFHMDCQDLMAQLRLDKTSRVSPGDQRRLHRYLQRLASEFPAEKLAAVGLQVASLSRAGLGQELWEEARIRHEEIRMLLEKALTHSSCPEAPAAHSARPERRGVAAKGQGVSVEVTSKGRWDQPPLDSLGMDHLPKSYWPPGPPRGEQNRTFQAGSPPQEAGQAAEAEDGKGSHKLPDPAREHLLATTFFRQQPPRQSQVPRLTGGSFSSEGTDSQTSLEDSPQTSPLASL
UniProt Q1ED39: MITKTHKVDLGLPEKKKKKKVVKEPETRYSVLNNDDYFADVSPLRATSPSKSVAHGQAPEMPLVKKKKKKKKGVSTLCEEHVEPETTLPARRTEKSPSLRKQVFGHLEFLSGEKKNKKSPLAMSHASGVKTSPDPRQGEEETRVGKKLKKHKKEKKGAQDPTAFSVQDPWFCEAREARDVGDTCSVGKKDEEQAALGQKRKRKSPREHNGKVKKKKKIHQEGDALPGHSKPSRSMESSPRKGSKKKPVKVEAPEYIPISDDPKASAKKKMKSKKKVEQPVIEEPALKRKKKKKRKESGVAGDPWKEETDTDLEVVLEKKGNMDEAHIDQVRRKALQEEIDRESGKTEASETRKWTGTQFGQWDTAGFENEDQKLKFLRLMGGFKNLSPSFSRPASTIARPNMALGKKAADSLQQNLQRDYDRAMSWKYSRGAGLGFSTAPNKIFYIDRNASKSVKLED
UniProt O43731: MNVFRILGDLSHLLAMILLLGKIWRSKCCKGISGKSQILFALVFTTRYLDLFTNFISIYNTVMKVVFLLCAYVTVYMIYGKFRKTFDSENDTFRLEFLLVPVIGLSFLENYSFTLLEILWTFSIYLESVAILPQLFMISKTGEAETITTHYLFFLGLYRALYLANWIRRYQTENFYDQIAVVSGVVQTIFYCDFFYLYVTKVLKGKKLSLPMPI
UniProt Q969F8, whole entry, looked up: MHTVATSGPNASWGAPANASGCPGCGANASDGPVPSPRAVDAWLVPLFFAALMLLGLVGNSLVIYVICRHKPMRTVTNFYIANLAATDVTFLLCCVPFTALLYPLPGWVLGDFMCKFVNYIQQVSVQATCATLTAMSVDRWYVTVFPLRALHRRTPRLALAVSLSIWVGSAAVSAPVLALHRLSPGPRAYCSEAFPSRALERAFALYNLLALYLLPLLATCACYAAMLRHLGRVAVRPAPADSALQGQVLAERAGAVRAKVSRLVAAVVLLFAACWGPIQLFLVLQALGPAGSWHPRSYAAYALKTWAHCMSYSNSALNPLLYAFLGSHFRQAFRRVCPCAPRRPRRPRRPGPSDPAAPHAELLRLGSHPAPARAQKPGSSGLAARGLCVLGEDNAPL

zotarolimus = compound: CO[C@H]1C[C@@H]2CC[C@@H](C)[C@@](O)(O2)C(=O)C(=O)N2CCCC[C@H]2C(=O)O[C@H]([C@H](C)C[C@@H]2CC[C@H](n3cnnn3)[C@H](OC)C2)CC(=O)[C@H](C)/C=C(\C)[C@@H](O)[C@@H](OC)C(=O)[C@H](C)C[C@H](C)/C=C/C=C/C=C/1C [zotarolimus]
Summary of the method: as §1

idasanutlin = compound: COc1cc(C(=O)O)ccc1NC(=O)[C@@H]1N[C@@H](CC(C)(C)C)[C@](C#N)(c2ccc(Cl)cc2F)[C@H]1c1cccc(Cl)c1F [idasanutlin]
Summary of the method: as §1

[1] = compound: CS(=O)(=O)c1ccc(-c2cnc(N)c(C(=O)Nc3ccccc3)n2)cc1
Summary of the method: as §1

[2] = compound: C[C@H](C1=CC=C(C=C1)C(=O)NC2=C3C=CNC3=NC=C2)N
Summary of the method: as §1

[3] = compound: COC1=CC=C(C=C1)CN2C=CC3=C2C=C(C=C3)C(=O)NO
Summary of the method: as §1

alisertib = compound: COc1cc(Nc2ncc3c(n2)-c2ccc(Cl)cc2C(c2c(F)cccc2OC)=NC3)ccc1C(=O)O [alisertib]
Summary of the method: as §1

gefitinib = compound: COc1cc2ncnc(Nc3ccc(F)c(Cl)c3)c2cc1OCCCN1CCOCC1 [gefitinib]
Summary of the method: as §1

[4] = compound: COc1cccc2cc(-c3nc([C@H]4CC[C@H](C(=O)O)CC4)n4ncnc(N)c34)[nH]c12
Summary of the method: as §1

crizotinib = compound: C[C@@H](Oc1cc(-c2cnn(C3CCNCC3)c2)cnc1N)c1c(Cl)ccc(F)c1Cl [crizotinib]
Summary of the method: as §1

duvelisib = compound: C[C@H](Nc1ncnc2nc[nH]c12)c1cc2cccc(Cl)c2c(=O)n1-c1ccccc1 [duvelisib]
Summary of the method: as §1

tozasertib = compound: Cc1cc(Nc2cc(N3CCN(C)CC3)nc(Sc3ccc(NC(=O)C4CC4)cc3)n2)n[nH]1 [tozasertib]
Summary of the method: as §1

[5] = compound: Cc1cc(SCc2sc(-c3ccc(C(F)(F)F)cc3)nc2C)ccc1OCC(=O)O
Summary of the method: as §1

doramapimod = compound: Cc1ccc(-n2nc(C(C)(C)C)cc2NC(=O)Nc2ccc(OCCN3CCOCC3)c3ccccc23)cc1 [doramapimod]
Summary of the method: as §1

[6] = compound: COc1cc2nc(-c3cc(F)ccc3O)nc(N[C@@H]3CNC[C@H]3C(C)(C)O)c2cc1OC
Summary of the method: as §1

lapatinib = compound: CS(=O)(=O)CCNCc1ccc(-c2ccc3ncnc(Nc4ccc(OCc5cccc(F)c5)c(Cl)c4)c3c2)o1 [lapatinib]
Summary of the method: as §1

[7] = compound: C[C@@H]1COCCN1C2=NC(=NC(=C2)C3(CC3)S(=O)(=O)C)C4=C5C=CNC5=CC=C4
Summary of the method: as §1

ispinesib = compound: Cc1ccc(C(=O)N(CCCN)[C@@H](c2nc3cc(Cl)ccc3c(=O)n2Cc2ccccc2)C(C)C)cc1 [ispinesib]
Summary of the method: as §1

pictilisib = compound: CS(=O)(=O)N1CCN(Cc2cc3nc(-c4cccc5[nH]ncc45)nc(N4CCOCC4)c3s2)CC1 [pictilisib]
Summary of the method: as §1

gandotinib = compound: Cc1cc(Nc2cc(CN3CCOCC3)c3nc(C)c(Cc4ccc(Cl)cc4F)n3n2)n[nH]1 [gandotinib]
Summary of the method: as §1

Measured: log2 fold change

KIF13A isoform 4 (UniProt Q9H1H9)
inactive: filanesib -0.684 | zotarolimus 0.03 | idasanutlin -0.081 | [1] -0.363 | [2] -0.019

KDM1B (UniProt Q8NB78)
inactive: [3] -0.121 | filanesib -0.036 | alisertib 0.016 | gefitinib 0 | [4] 0.166 | [1] -0.004 | crizotinib 0.069 | duvelisib 0.151 | tozasertib 0.084 | [5] -0.133 | doramapimod 0.039

KCNH2 (UniProt Q12809)
inactive: filanesib 0.006 | zotarolimus 0.036 | alisertib 0.017 | [6] -0.082 | [4] -0.271 | lapatinib -0.084 | crizotinib -0.155 | [7] -0.097 | [2] 0.561 | duvelisib 0.041 | [5] 0.084 | doramapimod 0.163

KIF26A (UniProt Q9ULI4)
inactive: [3] 0.002 | filanesib 0.018 | alisertib -0.024 | [6] -0.021 | gefitinib 0.043 | [4] 0.024 | lapatinib 0.004 | [1] 0.053 | crizotinib 0.155 | doramapimod 0.035 | ispinesib -0.023

KPTN (UniProt Q9Y664)
inactive: [3] 0.049 | zotarolimus 0.099 | idasanutlin -0.128 | alisertib -0.087 | [6] 0.098 | gefitinib 0.06 | [4] -0.009 | lapatinib 0.128 | pictilisib 0.015 | crizotinib -0.112 | [7] 0.276 | [2] -0.055 | duvelisib -0.006 | gandotinib -0.033 | tozasertib -0.078 | [5] 0.036 | doramapimod -0.016 | ispinesib 0.042

KDF1 (UniProt Q8NAX2)
inactive: [3] 0.011 | zotarolimus -0.182 | crizotinib 0.004 | [2] 0.005 | duvelisib 0.133 | [5] -0.238 | doramapimod -0.014 | ispinesib 0.121

KIAA1755 (UniProt Q5JYT7)
inactive: [3] -0.009 | zotarolimus 0.047 | [6] 0 | lapatinib -0.01 | crizotinib 0.067 | [7] -0.129 | [2] 0.241 | duvelisib 0.043 | tozasertib -0.047 | [5] -0.069 | doramapimod -0.057 | ispinesib -0.033

ITSN1 (UniProt Q15811)
inactive: filanesib -0.005 | idasanutlin -0.038 | alisertib 0.028 | [6] 0.042 | [4] 0.113 | lapatinib -0.02 | pictilisib 0.18 | [1] -0.037 | [7] -0.079 | gandotinib 0.126

Two neighbouring entries out of the list so far:
KIF26A (UniProt Q9ULI4)
inactive: [3] 0.002 | filanesib 0.018 | alisertib -0.024 | [6] -0.021 | gefitinib 0.043 | [4] 0.024 | lapatinib 0.004 | [1] 0.053 | crizotinib 0.155 | doramapimod 0.035 | ispinesib -0.023

KPTN (UniProt Q9Y664)
inactive: [3] 0.049 | zotarolimus 0.099 | idasanutlin -0.128 | alisertib -0.087 | [6] 0.098 | gefitinib 0.06 | [4] -0.009 | lapatinib 0.128 | pictilisib 0.015 | crizotinib -0.112 | [7] 0.276 | [2] -0.055 | duvelisib -0.006 | gandotinib -0.033 | tozasertib -0.078 | [5] 0.036 | doramapimod -0.016 | ispinesib 0.042

(next part)

KLHL7 (UniProt Q8IXQ5)
inactive: filanesib 0.016 | zotarolimus 0.208 | idasanutlin -0.165 | [6] -0.021 | gefitinib 0.181 | lapatinib -0.038 | [1] -0.047 | [7] 0.037 | [2] -0.097 | duvelisib -0.064 | [5] 0.077

KNOP1 (UniProt Q1ED39)
inactive: [3] 0.022 | zotarolimus -0.35 | idasanutlin 0.148 | alisertib 0.021 | [6] 0.309 | gefitinib -0.004 | [4] -0.085 | lapatinib -0.056 | pictilisib -0.369 | crizotinib -0.155 | [2] 0.327 | duvelisib -0.179 | gandotinib 0.002 | tozasertib 0.011 | [5] -0.108 | doramapimod 0.201 | ispinesib -0.063

KAT7 (UniProt O95251)
inactive: [3] 0.454 | filanesib -0.065 | idasanutlin 0.156 | alisertib -0.09 | [6] 0.298 | gefitinib 0.031 | [4] 0.021 | lapatinib 0.032 | [1] 0.286 | crizotinib 0.063 | doramapimod -0.029 | ispinesib 0.014

KRR1 (UniProt Q13601)
inactive: [3] -0.135 | pictilisib 0.02 | crizotinib -0.182 | gandotinib 0.028 | doramapimod 0.127

KDELR3 (UniProt O43731)
inactive: [3] -0.037 | idasanutlin 0.012 | alisertib -0.086 | gefitinib -0.103 | [4] 0.432 | crizotinib 0.059 | duvelisib 0.082 | tozasertib -0.052 | [5] -0.09 | doramapimod -0.07

KISS1R (UniProt Q969F8)
inactive: [3] -0.032 | filanesib 0.066 | alisertib -0.187 | [6] 0.065 | [4] 0.06 | lapatinib -0.099 | pictilisib -0.252 | [1] -0.128 | crizotinib 0.144 | [7] 0.071 | duvelisib 0.366 | gandotinib -0.123 | tozasertib -0.121 | [5] 0.165 | doramapimod -0.062 | ispinesib 0.02

KCTD1 (UniProt Q719H9)
inactive: [3] 0.054 | gefitinib 0.054 | crizotinib 0.136 | [7] 0.122 | duvelisib 0.323 | tozasertib 0.075 | [5] -0.068 | doramapimod 0.066
